# ± gives the standard deviation of the averaged measurements. The entries are a selection whose mix differs from that of the whole data set.
# Assays:
# Assay in all cases: NP40-soluble protein abundance relative to vehicle (solubility fold change) (ratio); higher = more soluble protein in presence of ATP
# [1] = molecular target: T1, UniProt Q6PJG2 and related entries
# T1 sequence (whole entry): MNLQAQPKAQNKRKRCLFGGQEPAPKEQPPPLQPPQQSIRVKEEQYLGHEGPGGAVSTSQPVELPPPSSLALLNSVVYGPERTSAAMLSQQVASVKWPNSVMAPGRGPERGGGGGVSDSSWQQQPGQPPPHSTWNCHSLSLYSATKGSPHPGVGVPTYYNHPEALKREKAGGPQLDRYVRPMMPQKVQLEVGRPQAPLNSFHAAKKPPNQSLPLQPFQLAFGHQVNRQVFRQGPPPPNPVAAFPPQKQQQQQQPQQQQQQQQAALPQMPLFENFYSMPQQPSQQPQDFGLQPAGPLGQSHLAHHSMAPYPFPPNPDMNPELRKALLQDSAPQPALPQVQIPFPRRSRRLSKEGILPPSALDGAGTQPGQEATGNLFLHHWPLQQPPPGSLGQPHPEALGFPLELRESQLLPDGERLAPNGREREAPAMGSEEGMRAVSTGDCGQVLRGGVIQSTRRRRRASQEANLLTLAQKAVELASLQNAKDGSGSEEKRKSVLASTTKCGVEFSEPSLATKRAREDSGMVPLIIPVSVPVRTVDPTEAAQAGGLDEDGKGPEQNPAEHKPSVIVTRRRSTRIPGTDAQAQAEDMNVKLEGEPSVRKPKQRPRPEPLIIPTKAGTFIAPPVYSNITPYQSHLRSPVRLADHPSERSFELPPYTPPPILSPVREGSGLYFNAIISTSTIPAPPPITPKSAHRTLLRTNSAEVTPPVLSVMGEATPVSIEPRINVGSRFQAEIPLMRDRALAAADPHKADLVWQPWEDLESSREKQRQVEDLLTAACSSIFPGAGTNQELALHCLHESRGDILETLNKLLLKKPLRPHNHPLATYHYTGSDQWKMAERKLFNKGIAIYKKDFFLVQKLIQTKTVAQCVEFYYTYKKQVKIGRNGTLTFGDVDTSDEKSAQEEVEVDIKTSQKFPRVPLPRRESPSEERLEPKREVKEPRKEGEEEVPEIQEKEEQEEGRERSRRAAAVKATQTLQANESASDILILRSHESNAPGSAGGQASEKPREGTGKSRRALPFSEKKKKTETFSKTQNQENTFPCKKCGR
# Method in brief: (§1)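 Data come from three independent experiments in which Dounce-homogenised Jurkat crude lysate was treated at eight concentrations from 0.1 to 10 mM. Treatment ran 10 min at room temperature and then 3 min at 37 °C, after which 0.8% NP40 and benzonase were added for 60 min at 4 °C before ultracentrifugation. The supernatant underwent TMT labelling and LC-MS/MS, and vsn-normalised intensities were expressed as fold change against the detergent-processed vehicle in each replicate.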
# UniProt Q6UW63 = molecular target: T2, UniProt Q6UW63
# T2 sequence (whole entry): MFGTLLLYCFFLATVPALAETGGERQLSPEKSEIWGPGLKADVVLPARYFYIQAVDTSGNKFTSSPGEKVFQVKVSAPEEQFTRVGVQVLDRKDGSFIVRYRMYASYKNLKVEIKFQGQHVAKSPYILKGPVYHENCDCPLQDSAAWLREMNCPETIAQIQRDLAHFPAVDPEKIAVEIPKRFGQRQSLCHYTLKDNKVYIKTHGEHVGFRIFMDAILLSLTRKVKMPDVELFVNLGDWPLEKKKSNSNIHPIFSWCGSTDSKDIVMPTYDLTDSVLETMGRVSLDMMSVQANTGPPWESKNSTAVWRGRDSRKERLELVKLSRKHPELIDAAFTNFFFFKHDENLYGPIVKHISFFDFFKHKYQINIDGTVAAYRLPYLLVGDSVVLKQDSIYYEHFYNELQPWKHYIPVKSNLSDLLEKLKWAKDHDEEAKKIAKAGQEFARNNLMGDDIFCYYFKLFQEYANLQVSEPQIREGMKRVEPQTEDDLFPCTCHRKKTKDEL
# Method in brief: as §1
# UniProt Q6UX04 = molecular target: T3, UniProt Q6UX04
# T3 sequence (whole entry): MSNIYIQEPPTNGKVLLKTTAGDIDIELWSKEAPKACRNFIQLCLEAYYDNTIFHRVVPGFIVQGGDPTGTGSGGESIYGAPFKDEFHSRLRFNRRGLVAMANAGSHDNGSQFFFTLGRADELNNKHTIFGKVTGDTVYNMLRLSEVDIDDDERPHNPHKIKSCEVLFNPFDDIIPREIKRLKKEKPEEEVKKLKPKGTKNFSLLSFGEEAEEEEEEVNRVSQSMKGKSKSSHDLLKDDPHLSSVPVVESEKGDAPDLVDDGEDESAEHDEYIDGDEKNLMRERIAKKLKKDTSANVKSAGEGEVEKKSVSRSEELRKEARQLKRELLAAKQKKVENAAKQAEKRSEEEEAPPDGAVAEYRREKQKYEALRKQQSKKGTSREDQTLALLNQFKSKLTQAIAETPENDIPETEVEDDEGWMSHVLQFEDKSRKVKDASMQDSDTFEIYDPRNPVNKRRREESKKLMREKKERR
# Method in brief: as §1
# [2] = molecular target: T4, UniProt Q6ZS86 and related entries
# T4 sequence (whole entry): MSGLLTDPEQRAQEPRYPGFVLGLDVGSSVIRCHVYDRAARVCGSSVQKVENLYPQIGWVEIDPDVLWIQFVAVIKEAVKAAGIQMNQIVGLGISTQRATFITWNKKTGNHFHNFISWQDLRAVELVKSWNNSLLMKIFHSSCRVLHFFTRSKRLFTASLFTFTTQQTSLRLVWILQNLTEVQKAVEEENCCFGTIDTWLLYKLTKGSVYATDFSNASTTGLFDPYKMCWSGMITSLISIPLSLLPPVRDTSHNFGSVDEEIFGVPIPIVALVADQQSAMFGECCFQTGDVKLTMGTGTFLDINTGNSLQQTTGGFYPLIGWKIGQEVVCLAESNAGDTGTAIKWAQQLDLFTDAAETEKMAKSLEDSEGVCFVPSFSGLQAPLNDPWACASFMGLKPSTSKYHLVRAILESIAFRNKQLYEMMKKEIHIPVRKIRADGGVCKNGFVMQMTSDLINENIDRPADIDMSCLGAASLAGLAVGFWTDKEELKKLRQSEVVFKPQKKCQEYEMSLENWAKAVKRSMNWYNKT
# Method in brief: as §1
# [3] = molecular target: T5, UniProt Q76FK4 and related entries
# T5 sequence (whole entry): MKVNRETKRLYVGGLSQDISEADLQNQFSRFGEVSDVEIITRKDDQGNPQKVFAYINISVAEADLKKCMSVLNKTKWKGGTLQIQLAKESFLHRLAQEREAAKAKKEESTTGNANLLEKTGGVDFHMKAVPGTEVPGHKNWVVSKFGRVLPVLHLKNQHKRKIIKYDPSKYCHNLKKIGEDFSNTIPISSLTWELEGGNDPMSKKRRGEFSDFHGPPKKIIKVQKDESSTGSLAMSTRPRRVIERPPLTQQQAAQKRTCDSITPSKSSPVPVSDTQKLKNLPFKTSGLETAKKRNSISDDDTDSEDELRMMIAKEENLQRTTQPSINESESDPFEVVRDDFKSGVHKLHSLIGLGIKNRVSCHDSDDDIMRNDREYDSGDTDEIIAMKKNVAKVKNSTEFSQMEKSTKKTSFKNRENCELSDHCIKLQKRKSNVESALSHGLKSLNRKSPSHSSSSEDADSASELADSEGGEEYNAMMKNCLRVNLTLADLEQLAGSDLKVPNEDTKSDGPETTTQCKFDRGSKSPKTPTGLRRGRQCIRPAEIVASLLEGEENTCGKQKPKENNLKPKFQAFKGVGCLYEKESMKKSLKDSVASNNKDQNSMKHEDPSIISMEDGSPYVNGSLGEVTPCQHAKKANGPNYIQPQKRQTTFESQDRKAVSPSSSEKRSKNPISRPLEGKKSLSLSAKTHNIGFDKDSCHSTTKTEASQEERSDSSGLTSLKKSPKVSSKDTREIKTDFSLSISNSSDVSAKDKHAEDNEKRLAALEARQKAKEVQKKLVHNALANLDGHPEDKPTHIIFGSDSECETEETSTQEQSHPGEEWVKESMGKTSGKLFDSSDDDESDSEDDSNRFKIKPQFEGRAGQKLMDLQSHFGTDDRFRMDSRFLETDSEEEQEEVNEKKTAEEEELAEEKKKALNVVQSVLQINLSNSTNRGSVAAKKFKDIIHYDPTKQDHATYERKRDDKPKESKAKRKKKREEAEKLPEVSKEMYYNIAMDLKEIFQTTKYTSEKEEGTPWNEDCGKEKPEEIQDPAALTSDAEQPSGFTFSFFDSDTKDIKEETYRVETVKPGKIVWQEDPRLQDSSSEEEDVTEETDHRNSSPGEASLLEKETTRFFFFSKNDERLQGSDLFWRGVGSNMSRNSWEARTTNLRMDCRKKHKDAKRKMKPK
# Method in brief: as §1
compound,measurement,setting,value
Nc1ncnc2c1ncn2[C@@H]1O[C@H](COP(=O)(O)OP(=O)(O)OP(=O)(O)O)[C@@H](O)[C@H]1O [adenosine triphosphate],NP40-soluble protein abundance,[1]; concentration: 1mM,1.11 ± 0.047
same,NP40-soluble protein abundance,[1]; concentration: 2mM,1.13 ± 0.029
same,NP40-soluble protein abundance,[1]; concentration: 4mM,1.15 ± 0.051
same,NP40-soluble protein abundance,[1]; concentration: 6mM,1.14 ± 0.079
same,NP40-soluble protein abundance,[1]; concentration: 8mM,1.12 ± 0.034
same,NP40-soluble protein abundance,[1]; concentration: 10mM,1.15 ± 0.046
same,NP40-soluble protein abundance,UniProt Q6UW63; concentration: 1mM,0.986 ± 0.07
same,NP40-soluble protein abundance,UniProt Q6UW63; concentration: 2mM,0.965 ± 0.051
same,NP40-soluble protein abundance,UniProt Q6UW63; concentration: 4mM,0.96 ± 0.097
same,NP40-soluble protein abundance,UniProt Q6UW63; concentration: 6mM,0.967 ± 0.14
same,NP40-soluble protein abundance,UniProt Q6UW63; concentration: 8mM,0.945 ± 0.089
same,NP40-soluble protein abundance,UniProt Q6UW63; concentration: 10mM,0.963 ± 0.021
same,NP40-soluble protein abundance,UniProt Q6UX04; concentration: 1mM,1.05 ± 0.046
same,NP40-soluble protein abundance,UniProt Q6UX04; concentration: 2mM,1.05 ± 0.03
same,NP40-soluble protein abundance,UniProt Q6UX04; concentration: 4mM,1.02 ± 0.047
same,NP40-soluble protein abundance,UniProt Q6UX04; concentration: 6mM,1.1 ± 0.043
same,NP40-soluble protein abundance,UniProt Q6UX04; concentration: 8mM,1.04 ± 0.029
same,NP40-soluble protein abundance,UniProt Q6UX04; concentration: 10mM,1.046 ± 0.01
same,NP40-soluble protein abundance,[2]; concentration: 1mM,1.12 ± 0.15
same,NP40-soluble protein abundance,[2]; concentration: 2mM,1.11 ± 0.22
same,NP40-soluble protein abundance,[2]; concentration: 4mM,1.09 ± 0.16
same,NP40-soluble protein abundance,[2]; concentration: 6mM,0.992 ± 0.18
same,NP40-soluble protein abundance,[2]; concentration: 8mM,0.934 ± 0.11
same,NP40-soluble protein abundance,[2]; concentration: 10mM,1 ± 0.054
same,NP40-soluble protein abundance,[3]; concentration: 1mM,1.02 ± 0.04
same,NP40-soluble protein abundance,[3]; concentration: 2mM,1.09 ± 0.021
same,NP40-soluble protein abundance,[3]; concentration: 4mM,1.139 ± 0.011
same,NP40-soluble protein abundance,[3]; concentration: 6mM,1.24 ± 0.018
same,NP40-soluble protein abundance,[3]; concentration: 8mM,1.21 ± 0.015
same,NP40-soluble protein abundance,[3]; concentration: 10mM,1.28 ± 0.022

# Some of the entries so far, tab-delimited:
compound	measurement	setting	value
Nc1ncnc2c1ncn2[C@@H]1O[C@H](COP(=O)(O)OP(=O)(O)OP(=O)(O)O)[C@@H](O)[C@H]1O [adenosine triphosphate]	NP40-soluble protein abundance	[2]; concentration: 4mM	1.09 ± 0.16
same	NP40-soluble protein abundance	[2]; concentration: 6mM	0.992 ± 0.18
